PubChem BioAssay AID1487 (National Center for Advancing Translational Sciences (NCATS), 2009)
“And” between values parts separate entries of the source, which are not always exact repeats. Equal values may be shown once. The list shows a part of the results. These are further read-outs of the screen, such as a control signal, another cell line or another target. No call is given for them. Compounds called inactive in the main read-out are mostly missing here. The note in brackets gives the kind of curve behind each potency; many fits are weak.

Experiment: qHTS Assay for Modulators of Lamin A Splicing
Details: HeLa LMNA splicing GFP/RFP minigene ratio, 48 h
How it was run: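 S3 HeLa stable clones carrying a lamin A-EGFP splicing minigene plus DsRed2 were seeded at 600 cells/well in Opti-MEM with 2% FBS, pin-dosed and incubated 48 h at 37°C. Acumen cytometry (488 nm) gave the GFP/RFP total-intensity ratio.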

[1] = measured here: RFP viability control channel
[2] = measured here: GFP splicing reporter channel

SMILES	AC50 [1]	AC50 [2]
CCCc1ccc(S(=O)(=O)NCCc2ccncc2)cc1	12.6 µM [rising, partial curve]	
Cc1ccccc1NC(=O)c1ccc([N+](=O)[O-])o1	35.5 µM [falling, partial curve]	22.4 µM [falling, single point]
O=C(Nc1ccc(C(F)(F)F)cc1Cl)c1ccc(Cn2cc(Br)cn2)o1	14.1 µM [rising, single point]	
CC(=O)c1ccc(NC(=S)N(C)C2CCN(C)CC2)cc1	15.8 µM [rising, partial curve, poor fit]	2.51 µM [rising, partial curve, poor fit]
Cc1cc(SCC(=O)c2ccccc2)n2nc(C)nc2n1	15.8 µM [rising, single point]	
COc1cccc(C2=NOC(C(=O)Nc3ccccc3SC)C2)c1 (stereo not drawn)	22.4 µM [rising, single point]	
Cc1ccc(Cl)cc1NC(=O)Nc1cccs1	0.794 µM [rising, full curve, poor fit]	1.26 µM [rising, partial curve]
COc1cccc(-c2nnc3sc(-c4ccccn4)nn23)c1	17.8 µM [rising, single point]	
O=C1CS/C(=N/N=C/c2ccncc2)N1	0.398 µM [falling, full curve, poor fit]	
C/C(CC(=O)NC(C)(C)C)=N\NC(=O)COc1ccc(C)cc1Br		2 µM [rising, partial curve]
COCCn1c(=O)[nH]c2cc(C(=O)NCCN3CCN(c4cccc(Cl)c4)CC3)ccc2c1=O	25.1 µM [rising, single point]	14.1 µM [rising, single point]
CCOc1ccc(NS(=O)(=O)c2ccc3[nH]c4c(c3c2)CCCC4)cc1	35.5 µM [falling, single point]	35.5 µM [falling, single point]
CCCCNC(C(=O)Nc1ccc([N+](=O)[O-])cc1Br)c1ccccc1 (stereo not drawn)	7.94 µM [rising, partial curve, poor fit]	8.91 µM [rising, partial curve]
COc1ccc(-c2oc3ccccc3c(=O)c2O)cc1OC	17.8 µM [falling, single point]	22.4 µM [falling, single point]
Cc1nn2c(=O)cc(COC(=O)c3cccc(NC(=O)c4cccs4)c3)nc2s1		12.6 µM [falling, partial curve]
O=C(/C=C\c1ccc(-c2cccc([N+](=O)[O-])c2)o1)N1CCOCC1	25.1 µM [rising, single point]	
CCCCCCCCCC(=O)Nn1cnc2ccccc2c1=O	0.112 µM [falling, full curve, poor fit]	
Cc1c(C(=O)Oc2cccc3ccccc23)cnn1-c1ccccc1	35.5 µM [rising, single point]	
COc1ccc(Cl)cc1NC(=O)CN1CCCC1	0.0708 µM [falling, full curve, poor fit]	
Cc1cc2cc(CN(CCN(C)C)C(=S)NCc3ccco3)c(=O)[nH]c2cc1C	0.0562 µM [falling, full curve, poor fit]	0.0794 µM [falling, full curve, poor fit]
Cc1cc([N+](=O)[O-])ccc1NC1CCCC1	22.4 µM [rising, single point]	17.8 µM [rising, single point]
CN(C(=O)COC(=O)c1ccc2c(c1)OCO2)C1CCS(=O)(=O)C1 (stereo not drawn)	0.01 µM [falling, full curve, poor fit]	
Cc1cc(C(=O)N/N=C/c2cc(Br)cc([N+](=O)[O-])c2O)c2ccccc2n1	31.6 µM [rising, single point]	11.2 µM [rising, single point]
O=C(CSc1n[nH]c(-c2ccccc2)n1)Nc1ncc(Br)cc1Br	17.8 µM [rising, single point]	14.1 µM [rising, single point]
COCC1CCN(C(=O)c2cc(COc3ccc4ncccc4c3)on2)CC1	1 µM [falling, full curve, poor fit]	0.891 µM [falling, full curve, poor fit]
Cc1ccc(Cn2ncc3c(N4CCN(c5ccc(C)cc5)CC4)ncnc32)cc1	0.224 µM [rising, full curve]	0.282 µM [rising, full curve]
S=C(Nc1cccc(Cl)c1)N1CCN(Cc2ccccc2)CC1	15.8 µM [rising, partial curve]	12.6 µM [rising, partial curve, poor fit]

At a glance, three of the compounds above.
SMILES	AC50 [1]	AC50 [2]
O=C1CS/C(=N/N=C/c2ccncc2)N1	0.398 µM [falling, full curve, poor fit]	
C/C(CC(=O)NC(C)(C)C)=N\NC(=O)COc1ccc(C)cc1Br		2 µM [rising, partial curve]
COCCn1c(=O)[nH]c2cc(C(=O)NCCN3CCN(c4cccc(Cl)c4)CC3)ccc2c1=O	25.1 µM [rising, single point]	14.1 µM [rising, single point]

(more compounds)

SMILES	AC50 [1]	AC50 [2]
CSCCC(NS(=O)(=O)c1ccc(Cl)cc1)C(=O)OCc1c(Cl)cccc1Cl (stereo not drawn)	35.5 µM [rising, single point]	
CC(C)c1ccc(S(=O)(=O)/N=C2/C=C(Sc3ncn[nH]3)C(=O)c3ccccc32)cc1	3.98 µM [falling, full curve]	4.47 µM [falling, full curve]
Cc1ccc(C(C)C)c(OCC(=O)N2CCC(c3nc4ccccc4o3)CC2)c1	3.16 µM [falling, full curve]	
O=C(CSC(=S)N1CCOCC1)Nc1nc(-c2ccccc2)c(-c2ccccc2)o1		14.1 µM [falling, single point]
CCOc1ccccc1C(=O)Nc1ccc2c(c1)N(C)C(=O)c1ccccc1S2	4.47 µM [rising, full curve]	0.0316 µM [rising, full curve, poor fit]
Cc1cc(/C=N/n2cnnc2)c(C)n1-c1ccc(OCc2ccc(Cl)cc2)cc1	3.55 µM [rising, partial curve]	3.55 µM [rising, partial curve]
CCN(CC(=O)Nc1cc(Cl)ccc1C)C(=O)COc1ccccc1F	0.0398 µM [falling, full curve, poor fit]	
COc1ccc(/C(N)=N/OC(=O)Cc2ccc(C)cc2)cc1OC	35.5 µM [rising, partial curve]	
CCCCNC(=O)NS(=O)(=O)c1ccc(C)cc1	0.224 µM [falling, single point]	316 nM [falling, full curve, poor fit] and 15.8 nM [falling, full curve, poor fit] and 6.31 µM [rising, single point]
CC(=O)c1cn(CC(=O)NCc2ccc3c(c2)OCO3)c2ccccc12	14.1 µM [rising, partial curve]	15.8 µM [rising, partial curve]
Cc1ccc2nc(N/N=C/c3ccccc3C#N)nc(-c3ccccc3)c2c1	31.6 µM [falling, single point]	
O=C(CCN1C(=O)COc2ccccc21)NCCN1CCN(c2ccccc2F)CC1		10 µM [rising, partial curve]
Cc1cc(SCn2nnc3ccccc3c2=O)nc2ccccc12	0.158 µM [rising, full curve, poor fit]	
OC(COc1ccccc1)Cn1c2ccccc2c2ccccc21 (stereo not drawn)	35.5 µM [rising, single point]	
CCOP(=O)(OCC)c1nc(/C=C/c2ccccc2)oc1NCc1ccc(OC)cc1	25.1 µM [rising, single point]	
Cc1ccc(Oc2ccc(NC(=O)c3ccco3)cc2)cc1	20 µM [rising, single point]	11.2 µM [rising, single point]
Fc1cccc(F)c1/C=N/Nc1ccccn1	0.00447 µM [rising, full curve, poor fit]	0.01 µM [rising, full curve, poor fit]
COc1cc(/C=C(/Sc2nnc(-c3ccc(F)cc3)o2)C(=O)O)ccc1OC(F)F	25.1 µM [rising, single point]	
Cn1c(=NC(=O)c2ccc3c(c2)OCCO3)sc2cc(S(C)(=O)=O)ccc21	0.794 µM [rising, full curve, poor fit]	0.794 µM [rising, full curve, poor fit]
c1ccc(CN2CCN(c3nc4ccccc4c4ccccc34)CC2)cc1	11.2 µM [rising, partial curve, poor fit]	
CCOC(=O)c1cnc(-n2nc(C)cc2C)nc1NNc1nc(-c2ccccc2)cc(-c2ccccc2)n1	11.2 µM [rising, partial curve]	
Cn1nc(C(=O)NCc2ccco2)c2ccccc2c1=O	0.00316 µM [falling, full curve, poor fit]	0.00447 µM [falling, full curve, poor fit]
Oc1c(Br)cccc1/C=N/Nc1c(F)c(F)c(F)c(F)c1F	31.6 µM [rising, single point]	22.4 µM [rising, single point]
O=C(N/N=C\c1cn(-c2ccccc2)nc1-c1ccccc1)c1ccc(Br)o1	14.1 µM [falling, partial curve, poor fit]	10 µM [falling, partial curve, poor fit]
CCn1c(SCC(=O)Nc2cccc(NC(=O)c3cccs3)c2)nnc1-c1ccncc1	28.2 µM [rising, single point]	
CCOc1ccc2nc(NC(=O)CS(=O)(=O)c3ccc(Cl)cc3)sc2c1	2.24 µM [rising, single point]	
